{"source": "paper PMC12198282", "about": "“Application of a high-density microelectrode array assay using a 3D human iPSC-derived brain microphysiological system model for in vitro neurotoxicity screening of environmental compounds” (Archives of Toxicology, 2025)", "test_system": "human iPSC-derived 3D BrainSpheres", "experiment": "BrainSphere MEA assay (HD-MEA, 13-day exposure, concentration-response)", "type": "cell-based", "protocol": "A volume of 1 ml of Tergazyme (1% solution in deionized water) was added to each well of the MaxTwo 6-Well Plate (MaxWell Biosystems) and incubated overnight under constant gyratory shaking (88 RPM) at 37 °C and 5% CO2. The next day, Tergazyme solution was removed, and plates were washed with distilled water and ethanol. After remaining ethanol was evaporated, wells were washed with PBS. Then, 200 µl of Poly-D-Lysine (Gibco, A38904 - 01) was added on top of the electrodes and incubated at 37 °C and 5% CO2 for 3 h (humidified). Poly-D-Lysine was then removed, and wells were coated with 100 µl of 0.1 mg/ml laminin coating solution (Sigma-Aldrich, L2020 - 1 mg) and incubated for 2 h at 37 ℃ and 5% CO2 (humidified). The laminin was removed after incubation. Using a 1 ml micropipette, 1 ml of medium containing BrainSpheres (7 weeks differentiated), approximately 25 BrainSpheres per ml, was plated on top of the HD-MEA chip (Fig. 1A). […]\nThe MaxTwo high-density microelectrode array system (MaxWell Biosystems AG, Zurich, Switzerland) was used to measure neural activity with MaxTwo 6-well plates, where every well includes an integrated chip with 26,400 platinum electrodes arranged in an area of 3.85 × 2.10 mm^2 ([…]) (Muller et al. [2015]). The data were recorded and analyzed with the MaxLab Live Software (version 22.2.22). […] Over the course of the 13-day experiment, the same selected regions and electrodes were measured using the MaxLab Live Network Assay (600 s recording time).\nA custom analysis framework was used to extract the MaxLab Live neuronal metrics for the individual BrainSpheres. For this, electrodes comprising a single ROI (i.e., individual BrainSphere; Fig. 2D) were grouped using distance-based clustering (fcluster method of Scipy library, Python 3.7) and neural metrics were calculated for the clustered electrodes for every ROI separately. […] Ten MaxLab Live neural metrics (endpoints) were evaluated from the MaxLab live ActivityScan and Network Assay in this study. […]\nThe BrainSphere MEA assay measured changes in neural activity during a 13-day chemical exposure. […]", "note": "Like-named read-outs stand apart in the source and are kept apart here.", "data": [{"smiles": "CN(C)C(=O)C(CCN1CCC(O)(c2ccc(Cl)cc2)CC1)(c1ccccc1)c1ccccc1", "note": "[Loperamide]", "values": [{"measurement": "EC50", "setting": "read-out: Mean potency", "result": 2680, "unit": "nM"}, {"measurement": "EC50", "setting": "read-out: Minimum potency", "result": 30, "unit": "nM"}, {"measurement": "AC50", "setting": "read-out: ac50 Spheroid.Burst.Frequency", "result": 30, "unit": "nM"}]}]}
